Measured values from paper PMC6035379 (Journal of Ginseng Research, 2017).
Structures can show the parent of a compound that is named as a salt.

Format: in vivo, rats
[1] = rats, fexofenadine 10 mg/kg oral, control group

SMILES: CC(C)(C(=O)O)c1ccc(C(O)CCCN2CCC(C(O)(c3ccccc3)c3ccccc3)CC2)cc1 (stereo not shown) [fexofenadine, Fexofenadine hydrochloride]
- AUC(0-t) (male, Sprague-Dawley, rat, plasma, po, 10 mg/kg): 138 ng·h/mL
- second plasma peak concentration [1]: 18 ng/mL
- time of first plasma peak [1]: 0.5 h
- time of second plasma peak [1]: 2 to 3 h
